Laboratory results reported in paper doi:10.1101/2025.03.30.646247.
Results are given in words; binding and its absence hold for the method and conditions named. For some of these results: In cells and extracts the contact can be indirect. Some entries that bind do so weakly or less than the wild type. For some of these results: Sequences can lack the tags named with a protein.

By UniProt entry, the sequences of proteins in these tests, tags left out. Where a name states a change or a piece, a line headed by the entry shows the natural chain unless it says otherwise. Chains listed by the source or under a name are the forms on record and can include a tag or linker.
UniProt Q9FIJ0: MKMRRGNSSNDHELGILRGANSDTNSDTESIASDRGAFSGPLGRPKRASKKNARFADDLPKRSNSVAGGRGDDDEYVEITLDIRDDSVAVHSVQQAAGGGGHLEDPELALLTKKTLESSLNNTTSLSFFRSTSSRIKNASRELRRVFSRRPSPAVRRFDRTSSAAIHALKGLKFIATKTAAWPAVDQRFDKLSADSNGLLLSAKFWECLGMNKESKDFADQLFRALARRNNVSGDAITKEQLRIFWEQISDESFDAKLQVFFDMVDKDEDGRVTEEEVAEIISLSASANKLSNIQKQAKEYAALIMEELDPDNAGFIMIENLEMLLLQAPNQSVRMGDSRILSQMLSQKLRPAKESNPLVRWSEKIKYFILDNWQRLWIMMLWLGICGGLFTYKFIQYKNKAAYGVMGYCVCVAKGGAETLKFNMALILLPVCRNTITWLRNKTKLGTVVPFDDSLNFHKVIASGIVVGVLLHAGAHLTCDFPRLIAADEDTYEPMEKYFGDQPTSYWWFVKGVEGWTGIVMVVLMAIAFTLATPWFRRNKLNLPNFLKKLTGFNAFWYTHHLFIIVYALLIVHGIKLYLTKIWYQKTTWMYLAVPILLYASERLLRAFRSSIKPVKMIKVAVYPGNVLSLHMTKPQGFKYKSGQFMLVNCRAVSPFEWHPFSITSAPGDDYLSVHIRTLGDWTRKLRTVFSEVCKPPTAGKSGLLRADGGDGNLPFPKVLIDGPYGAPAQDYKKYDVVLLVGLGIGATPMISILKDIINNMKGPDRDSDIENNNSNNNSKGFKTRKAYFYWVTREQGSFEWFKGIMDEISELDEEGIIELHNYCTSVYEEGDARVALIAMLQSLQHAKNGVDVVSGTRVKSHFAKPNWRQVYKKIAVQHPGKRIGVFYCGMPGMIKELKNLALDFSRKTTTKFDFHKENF
UniProt Q8W1D5: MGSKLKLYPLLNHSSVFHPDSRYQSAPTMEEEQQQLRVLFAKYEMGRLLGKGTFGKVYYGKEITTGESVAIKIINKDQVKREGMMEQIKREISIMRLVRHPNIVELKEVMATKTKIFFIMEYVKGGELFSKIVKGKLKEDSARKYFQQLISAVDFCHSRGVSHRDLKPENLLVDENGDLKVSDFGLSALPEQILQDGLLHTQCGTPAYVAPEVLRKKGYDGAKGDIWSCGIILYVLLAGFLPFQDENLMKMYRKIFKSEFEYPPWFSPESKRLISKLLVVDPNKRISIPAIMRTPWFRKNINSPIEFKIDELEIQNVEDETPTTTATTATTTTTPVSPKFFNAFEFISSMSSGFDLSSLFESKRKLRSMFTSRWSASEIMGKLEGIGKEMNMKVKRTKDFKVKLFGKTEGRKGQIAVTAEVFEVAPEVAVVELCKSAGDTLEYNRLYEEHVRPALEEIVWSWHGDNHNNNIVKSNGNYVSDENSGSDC
UniProt O81445: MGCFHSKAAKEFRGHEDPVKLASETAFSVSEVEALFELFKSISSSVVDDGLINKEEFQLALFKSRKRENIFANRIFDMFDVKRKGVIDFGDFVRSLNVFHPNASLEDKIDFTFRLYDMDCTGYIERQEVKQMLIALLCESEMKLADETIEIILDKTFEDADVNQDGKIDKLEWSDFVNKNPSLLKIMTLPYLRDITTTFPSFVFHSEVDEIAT
CBL1 G^2/A-YFP^C (O81445, form named): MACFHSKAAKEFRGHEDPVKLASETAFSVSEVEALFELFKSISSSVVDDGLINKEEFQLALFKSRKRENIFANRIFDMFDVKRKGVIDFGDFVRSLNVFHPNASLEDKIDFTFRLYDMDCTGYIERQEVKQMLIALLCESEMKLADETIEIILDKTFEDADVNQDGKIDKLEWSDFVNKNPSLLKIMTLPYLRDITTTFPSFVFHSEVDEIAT
UniProt Q7FRS8: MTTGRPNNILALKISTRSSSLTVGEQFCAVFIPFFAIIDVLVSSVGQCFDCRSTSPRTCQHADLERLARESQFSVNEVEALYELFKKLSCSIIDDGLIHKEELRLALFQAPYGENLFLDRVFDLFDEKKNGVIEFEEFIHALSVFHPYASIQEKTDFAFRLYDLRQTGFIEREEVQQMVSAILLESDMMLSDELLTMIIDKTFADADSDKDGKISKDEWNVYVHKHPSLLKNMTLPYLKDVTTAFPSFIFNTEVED
UniProt Q9LTB8: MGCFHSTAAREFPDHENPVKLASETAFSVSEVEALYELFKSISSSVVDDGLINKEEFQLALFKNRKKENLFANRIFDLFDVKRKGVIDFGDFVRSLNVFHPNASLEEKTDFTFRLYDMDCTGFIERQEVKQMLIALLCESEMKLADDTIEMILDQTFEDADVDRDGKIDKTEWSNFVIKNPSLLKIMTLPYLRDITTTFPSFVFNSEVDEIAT
CBL9 G^2/A-YFP^C (Q9LTB8, form named): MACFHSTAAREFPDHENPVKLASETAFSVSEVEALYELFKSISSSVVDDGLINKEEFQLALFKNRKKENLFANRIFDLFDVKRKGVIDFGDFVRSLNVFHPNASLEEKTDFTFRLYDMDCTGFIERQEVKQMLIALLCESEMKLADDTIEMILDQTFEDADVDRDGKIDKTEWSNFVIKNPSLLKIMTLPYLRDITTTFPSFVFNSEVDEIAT
UniProt O81223: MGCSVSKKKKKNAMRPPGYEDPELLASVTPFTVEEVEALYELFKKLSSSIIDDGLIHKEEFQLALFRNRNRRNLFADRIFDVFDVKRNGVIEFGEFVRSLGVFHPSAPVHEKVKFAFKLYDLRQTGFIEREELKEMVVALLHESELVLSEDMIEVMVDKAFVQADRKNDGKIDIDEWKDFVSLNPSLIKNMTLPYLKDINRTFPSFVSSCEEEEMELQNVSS

Experiments:
[1] = target: RbohD-YFP (Arabidopsis thaliana) (UniProt Q9FIJ0); experiment: co-IP
[2] = target: CIPK25-YFP (UniProt Q8W1D5); experiment: co-IP
[3] = target: T1, CIPK6-YFP (Arabidopsis thaliana) (UniProt O65554); experiment: co-IP
T1 sequence: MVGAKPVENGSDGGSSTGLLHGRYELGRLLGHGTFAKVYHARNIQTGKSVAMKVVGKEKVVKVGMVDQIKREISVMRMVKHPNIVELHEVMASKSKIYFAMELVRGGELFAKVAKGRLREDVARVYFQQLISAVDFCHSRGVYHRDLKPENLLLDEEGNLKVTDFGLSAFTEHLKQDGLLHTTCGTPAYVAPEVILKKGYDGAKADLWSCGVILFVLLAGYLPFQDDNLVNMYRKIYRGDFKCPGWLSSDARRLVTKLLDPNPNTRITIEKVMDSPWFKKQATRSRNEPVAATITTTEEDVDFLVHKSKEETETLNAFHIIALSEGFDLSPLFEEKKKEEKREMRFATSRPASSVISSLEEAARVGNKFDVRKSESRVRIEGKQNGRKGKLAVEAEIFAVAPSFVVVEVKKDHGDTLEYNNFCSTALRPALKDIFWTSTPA

[4] = target: CIPK6-YFP^N (Arabidopsis thaliana) (UniProt O65554); experiment: split reporter
[5] = target: RbohD-YFP^N (Arabidopsis thaliana) (UniProt Q9FIJ0); experiment: split reporter
[6] = target: CBL-interacting protein kinase 6 (CIPK6) fused to the GAL4 DNA-binding domain (Arabidopsis thaliana) (UniProt O65554); experiment: two-hybrid
[7] = target: RbohD-YFP^C (Arabidopsis thaliana) (UniProt Q9FIJ0); experiment: split reporter

For 3xFlag-CBL1 (from UniProt O81445 1-213), the binding [1] was “binds”.

With “3xFlag-CBL10 (from UniProt Q7FRS8 1-256)” the binding [1] was “no binding”.

For “10xcMyc-CBL1 (from UniProt O81445 1-213)”, the binding [2] was “no binding” and the binding [3] was “binds”.

For “10xcMyc-CBL9 (from UniProt Q9LTB8 1-213)”, the binding [2] was “no binding” and the binding [3] was “binds”.

For “10xcMyc-CIPK25 (from UniProt Q8W1D5 1-488) (enzyme)”, the binding [1] was “no binding”.

In the case of “CBL1 G^2/A-YFP^C (from UniProt O81445 1-213)”, the binding [4] is reported as “binds”.

With CBL1-YFP^C (from UniProt O81445 1-213) the binding [4] was “binds” and the binding [5] was “binds”.

With “CBL2 fused to the GAL4 activation domain (from UniProt Q8LAS7 1-226)” the binding [6] was “binds”.

In the case of “CBL3 fused to the GAL4 activation domain (from UniProt Q8LEM7 1-226)”, the binding [6] is reported as “binds”.

“CBL4 fused to the GAL4 activation domain (from UniProt O81223 1-222)” was tested, and the binding [6] was “binds”.

With “CBL9 G^2/A-YFP^C (from UniProt Q9LTB8 1-213)” the binding [4] was “binds”.

For “CBL9 fused to the GAL4 activation domain (from UniProt Q9LTB8 1-213)”, the binding [6] was “binds”.

With CBL9-YFP^C (from UniProt Q9LTB8 1-213) the binding [4] was “binds” and the binding [5] was “binds”.

With “CIPK6 K^53/A-YFP^N (from UniProt O65554 1-441) (enzyme)” the binding [7] was “binds”.

For “Calcineurin B like protein 1 (CBL1) fused to the GAL4 activation domain (from UniProt O81445 1-213)”, the binding [6] was “binds”.
